Data: patent US20030207340A1, “Sequences encoding human neoplastic marker” (priority 2002, published 2003)
Some entries share one result that the patent states for a list of compounds. Some compounds share one range, which may span the group rather than tell each member.

Each molecule was assayed on COS cells stably transfected with tNOX cDNA (assay: Growth inhibition of COS cells transfected with tNOX cDNA). Conditions: tNOX cDNA-transfected COS cells vs vector alone.
Format: cell-based, African monkey
From the text: Transient transfection of COS cells were with pcDNA3.1 (Invitrogen) and a Calcium Phosphate Transfection Kit (Invitrogen, Carlsbad, Calif.) according to the manufacturer's protocol. ttNOX cDNA was first amplified by PCR using primers 5═-[…]-3′ (forward; SEQ ID NO: 12) and 5′-[…]-3′ (reverse, SEQ ID NO: 13). The PCR product was then amplified using primers 5′-[…]-3′ (forward, SEQ ID NO: 14) and 5′-[…]-3′ (reverse, SEQ ID NO: 15) to construct a HindIII site at 5′ end of the nontemplate strand. The product was double digested using HindIII and BamHI enzymes. The digested products were separated on an agarose gel and extracted using a DNA Extraction Kit (Qiagen, Valencia, Calif.). The DNA was then ligated into a pcDNA3.1 vector that contains a cytomegalovirus enhancer-promoter for high levels of expression. For propagation of the plasmid DNA, the ligation product was used to transform XL-1 blue competent cells using heat pulse technique (Sambrook et al., 1989, supra). The positive clones were identified by PCR. The resulting plasmid was then used to transfect COS cells.
COS-1 cells (African monkey kidney cell line), were plated one day prior to transfection at 4×10^5 cells per 100-mm dish. Thirty-six μl of 2 M CaCl2 and 30 μg of pcDNA3.1 or pcDNA3.1-tNOX in 300 μl sterile H2O were slowly added dropwise into 300 μl of 2× Hepes Buffered Saline (HBS) at room temperature for 30 min. The transfection mixtures then were added dropwise to the media to the cells and incubated overnight at 37C. After overnight exposure to the DNA precipitate, the cells were washed twice with PBS and 3 ml of DMSO were added for 2.5 min. The DMSO then was removed and cells were fed with fresh media for 2-3 days. tNOX expression was evaluated on the basis of enzymatic activity and Western blot analysis. For selection of stable transfectants, antibiotic G418 sulfate was used (Invitrogen, Carlsbad, Calif.). After the COS cells were transfected with the tNOX cDNA expression plasmid, 0.5 mg/ml of G418 sulfate was added into the media twice a week and the cultures were maintained until colonies 2 to 3 mm in diameter were formed. A total of three colonies were selected and trypsinized individually and then transferred into wells of a 24-well plate and then into a 35 mm petri dish. Cells were harvested at 80% confluency. Transfections were confirmed by immunoblotting.

Molecule	shift of the EC50 of growth inhibition to lower drug concentrations
COc1cccc2c1C(=O)c1c(O)c3c(c(O)c1C2=O)C[C@@](O)(C(=O)CO)C[C@@H]3O[C@H]1C[C@H](N)[C@H](O)[C@H](C)O1 [Adriamycin, adriamycin]	1 to 2 orders of magnitude
COc1cc(CNC(=O)CCCC/C=C/C(C)C)ccc1O [Capsaicin, 8-methyl-N-vanillyl-6-noneamide]	1 to 2 orders of magnitude
Cc1ccc(S(=O)(=O)NC(=O)Nc2ccc(Cl)cc2)cc1 [LY181984, N-(4-methylphenylsulfonyl)-N′-(4-chlorophenyl)urea]	1 to 2 orders of magnitude
(−)-epigallocatechin gallate [EGCg]	1 to 2 orders of magnitude
